The values below come from patent US20240016819A1, “CANNABINOIDS FOR USE IN THE TREATMENT OF EPILEPSY” (GW RESEARCH LIMITED, priority 2020, published 2024).

A short description of the series: Solubility of the drug substance in water. The series is classed as physicochemical.

For `C=C(C)[C@@H]1CCC(C)=C[C@H]1c1c(O)cc(CCCCC)cc1O` [CBD Extract, Cannabidiol], the solubility in water result was “insoluble in water”.
